# Assay results published in the supplement of paper PMC12819154, “High-throughput peptide-centric local stability assay extends protein–ligand identification to membrane proteins, tissues and bacteria” (Nature Structural & Molecular Biology, 2025).
# Protein sequences, listed by entry. Tags and fused reporters are not part of them. Lines headed by an entry give the natural chain unless they say otherwise; changes in a name come on top.
# UniProt P06136, whole entry: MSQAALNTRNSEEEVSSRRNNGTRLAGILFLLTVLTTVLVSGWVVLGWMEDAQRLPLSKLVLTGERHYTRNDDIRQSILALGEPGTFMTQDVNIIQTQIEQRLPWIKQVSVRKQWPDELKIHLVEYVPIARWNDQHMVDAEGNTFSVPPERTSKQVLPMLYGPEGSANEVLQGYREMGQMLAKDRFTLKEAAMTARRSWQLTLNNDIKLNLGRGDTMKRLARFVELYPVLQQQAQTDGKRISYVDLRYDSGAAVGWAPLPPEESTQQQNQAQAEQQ
# UniProt P04968: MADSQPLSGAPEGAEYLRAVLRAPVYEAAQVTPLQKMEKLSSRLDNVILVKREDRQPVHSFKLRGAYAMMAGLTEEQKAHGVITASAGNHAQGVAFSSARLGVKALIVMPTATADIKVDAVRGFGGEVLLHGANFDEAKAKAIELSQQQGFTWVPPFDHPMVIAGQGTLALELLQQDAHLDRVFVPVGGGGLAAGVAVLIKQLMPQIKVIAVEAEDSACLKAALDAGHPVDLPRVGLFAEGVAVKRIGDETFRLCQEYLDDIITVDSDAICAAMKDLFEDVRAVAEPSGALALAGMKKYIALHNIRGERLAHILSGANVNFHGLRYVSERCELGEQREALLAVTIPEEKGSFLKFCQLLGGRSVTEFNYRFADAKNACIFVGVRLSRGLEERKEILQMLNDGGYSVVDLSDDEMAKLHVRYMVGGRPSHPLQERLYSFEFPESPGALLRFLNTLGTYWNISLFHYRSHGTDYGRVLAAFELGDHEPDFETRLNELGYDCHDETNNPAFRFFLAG
# UniProt P06966: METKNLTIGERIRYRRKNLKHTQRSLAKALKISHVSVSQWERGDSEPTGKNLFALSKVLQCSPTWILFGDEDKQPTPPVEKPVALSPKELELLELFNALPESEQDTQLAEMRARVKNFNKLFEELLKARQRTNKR
# UniProt P02924: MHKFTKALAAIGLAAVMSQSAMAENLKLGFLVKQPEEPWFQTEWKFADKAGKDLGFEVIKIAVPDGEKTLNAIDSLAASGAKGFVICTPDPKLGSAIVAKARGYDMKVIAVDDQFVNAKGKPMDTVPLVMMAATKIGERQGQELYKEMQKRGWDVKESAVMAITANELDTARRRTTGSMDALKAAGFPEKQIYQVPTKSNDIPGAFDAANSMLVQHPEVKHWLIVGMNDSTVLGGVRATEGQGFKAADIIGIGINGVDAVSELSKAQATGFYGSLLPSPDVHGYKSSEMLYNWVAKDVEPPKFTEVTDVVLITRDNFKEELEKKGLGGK
# UniProt P04993: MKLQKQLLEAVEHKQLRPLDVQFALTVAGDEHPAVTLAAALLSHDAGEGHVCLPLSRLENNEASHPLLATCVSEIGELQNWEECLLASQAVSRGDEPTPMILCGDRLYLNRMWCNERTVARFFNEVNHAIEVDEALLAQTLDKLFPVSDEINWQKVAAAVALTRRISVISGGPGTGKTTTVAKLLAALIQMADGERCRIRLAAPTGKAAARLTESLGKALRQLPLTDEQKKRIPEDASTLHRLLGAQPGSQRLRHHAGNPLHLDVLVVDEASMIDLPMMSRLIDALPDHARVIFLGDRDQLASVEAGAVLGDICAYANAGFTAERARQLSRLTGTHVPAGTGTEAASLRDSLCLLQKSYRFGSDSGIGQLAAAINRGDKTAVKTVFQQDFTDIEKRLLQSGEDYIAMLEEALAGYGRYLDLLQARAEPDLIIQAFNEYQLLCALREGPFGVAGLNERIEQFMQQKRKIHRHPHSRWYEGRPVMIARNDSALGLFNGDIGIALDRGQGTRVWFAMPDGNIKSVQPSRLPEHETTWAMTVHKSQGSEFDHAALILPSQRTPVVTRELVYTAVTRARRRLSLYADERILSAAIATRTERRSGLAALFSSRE
# UniProt P00350: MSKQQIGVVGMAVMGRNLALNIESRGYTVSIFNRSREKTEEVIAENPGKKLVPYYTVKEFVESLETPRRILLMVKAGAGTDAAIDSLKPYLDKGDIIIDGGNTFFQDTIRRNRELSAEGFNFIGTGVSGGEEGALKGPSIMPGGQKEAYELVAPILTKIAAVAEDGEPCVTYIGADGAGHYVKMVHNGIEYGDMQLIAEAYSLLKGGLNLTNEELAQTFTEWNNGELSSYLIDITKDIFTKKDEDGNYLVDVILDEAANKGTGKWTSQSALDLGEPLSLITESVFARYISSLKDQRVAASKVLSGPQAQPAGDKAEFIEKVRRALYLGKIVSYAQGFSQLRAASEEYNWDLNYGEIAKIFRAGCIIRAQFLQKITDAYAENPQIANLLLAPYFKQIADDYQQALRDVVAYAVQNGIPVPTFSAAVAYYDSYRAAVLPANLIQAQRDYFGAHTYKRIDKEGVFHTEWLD
# UniProt P00893: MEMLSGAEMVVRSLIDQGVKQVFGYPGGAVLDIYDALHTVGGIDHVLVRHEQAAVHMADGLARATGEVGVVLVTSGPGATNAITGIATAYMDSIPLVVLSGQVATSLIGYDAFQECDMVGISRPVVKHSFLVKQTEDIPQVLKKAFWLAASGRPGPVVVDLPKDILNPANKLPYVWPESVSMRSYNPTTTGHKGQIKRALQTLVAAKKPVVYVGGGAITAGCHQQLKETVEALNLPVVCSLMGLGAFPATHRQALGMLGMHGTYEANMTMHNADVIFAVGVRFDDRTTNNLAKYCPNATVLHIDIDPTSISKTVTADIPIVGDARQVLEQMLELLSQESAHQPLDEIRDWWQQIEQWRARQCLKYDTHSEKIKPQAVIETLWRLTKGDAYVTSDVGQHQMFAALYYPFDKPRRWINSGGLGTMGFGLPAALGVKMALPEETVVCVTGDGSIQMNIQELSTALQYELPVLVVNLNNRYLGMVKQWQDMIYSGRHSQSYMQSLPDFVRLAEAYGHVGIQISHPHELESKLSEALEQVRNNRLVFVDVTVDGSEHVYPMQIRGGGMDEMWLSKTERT
# UniProt P07026: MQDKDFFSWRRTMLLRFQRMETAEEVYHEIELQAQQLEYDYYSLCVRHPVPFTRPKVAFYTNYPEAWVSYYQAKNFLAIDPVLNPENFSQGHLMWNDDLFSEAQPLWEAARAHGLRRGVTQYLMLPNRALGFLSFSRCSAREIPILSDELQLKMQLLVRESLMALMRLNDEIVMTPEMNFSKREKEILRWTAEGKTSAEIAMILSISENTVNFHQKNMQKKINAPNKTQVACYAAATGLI
# UniProt P04816: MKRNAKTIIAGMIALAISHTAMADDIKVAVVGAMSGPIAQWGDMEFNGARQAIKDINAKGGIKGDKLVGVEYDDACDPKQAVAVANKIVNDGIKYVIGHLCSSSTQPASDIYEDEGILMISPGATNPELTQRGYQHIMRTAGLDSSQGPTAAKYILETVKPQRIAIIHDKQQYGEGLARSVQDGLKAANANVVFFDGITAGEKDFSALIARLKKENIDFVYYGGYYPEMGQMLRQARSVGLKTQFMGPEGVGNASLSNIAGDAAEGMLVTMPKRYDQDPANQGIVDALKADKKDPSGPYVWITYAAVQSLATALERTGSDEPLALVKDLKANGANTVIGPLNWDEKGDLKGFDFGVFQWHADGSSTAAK
# UniProt P00909: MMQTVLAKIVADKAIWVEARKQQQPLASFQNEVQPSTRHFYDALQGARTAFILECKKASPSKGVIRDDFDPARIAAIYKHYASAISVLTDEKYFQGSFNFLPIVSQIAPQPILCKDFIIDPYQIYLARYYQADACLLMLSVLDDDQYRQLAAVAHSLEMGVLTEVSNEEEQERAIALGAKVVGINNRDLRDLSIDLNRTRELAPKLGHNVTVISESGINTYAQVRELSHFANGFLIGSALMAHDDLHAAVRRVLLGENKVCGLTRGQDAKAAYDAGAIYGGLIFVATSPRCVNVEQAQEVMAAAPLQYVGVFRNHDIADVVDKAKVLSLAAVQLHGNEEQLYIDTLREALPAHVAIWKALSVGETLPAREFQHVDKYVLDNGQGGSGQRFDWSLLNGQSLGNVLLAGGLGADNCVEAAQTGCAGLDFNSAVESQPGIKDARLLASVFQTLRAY
# UniProt A5A607: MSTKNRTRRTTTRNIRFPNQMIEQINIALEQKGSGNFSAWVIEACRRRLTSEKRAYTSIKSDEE
# UniProt P07464: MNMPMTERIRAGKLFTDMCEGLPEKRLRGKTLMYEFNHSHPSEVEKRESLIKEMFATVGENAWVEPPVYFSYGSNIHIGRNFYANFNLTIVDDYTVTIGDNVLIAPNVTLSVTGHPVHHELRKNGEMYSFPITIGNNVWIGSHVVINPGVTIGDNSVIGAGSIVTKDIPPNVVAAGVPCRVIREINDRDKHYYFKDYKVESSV
# UniProt P08400: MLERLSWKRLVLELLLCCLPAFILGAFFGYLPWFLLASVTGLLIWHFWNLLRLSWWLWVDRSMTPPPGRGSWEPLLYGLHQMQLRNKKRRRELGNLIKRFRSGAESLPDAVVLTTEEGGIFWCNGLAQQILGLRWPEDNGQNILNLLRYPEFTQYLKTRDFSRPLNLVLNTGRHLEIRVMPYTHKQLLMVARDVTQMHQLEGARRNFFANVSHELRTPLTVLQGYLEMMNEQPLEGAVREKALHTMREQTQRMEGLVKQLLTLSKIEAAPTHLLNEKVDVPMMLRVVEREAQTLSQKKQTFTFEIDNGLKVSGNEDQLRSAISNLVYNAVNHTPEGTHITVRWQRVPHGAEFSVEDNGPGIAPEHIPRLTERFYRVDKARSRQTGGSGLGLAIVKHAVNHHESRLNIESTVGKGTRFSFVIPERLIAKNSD
# UniProt P06610: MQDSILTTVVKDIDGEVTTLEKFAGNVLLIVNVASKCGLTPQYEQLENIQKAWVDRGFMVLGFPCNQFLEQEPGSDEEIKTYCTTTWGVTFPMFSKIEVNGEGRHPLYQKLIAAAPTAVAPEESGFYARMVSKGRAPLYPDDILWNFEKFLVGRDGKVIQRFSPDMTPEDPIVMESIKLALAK
# UniProt P08997: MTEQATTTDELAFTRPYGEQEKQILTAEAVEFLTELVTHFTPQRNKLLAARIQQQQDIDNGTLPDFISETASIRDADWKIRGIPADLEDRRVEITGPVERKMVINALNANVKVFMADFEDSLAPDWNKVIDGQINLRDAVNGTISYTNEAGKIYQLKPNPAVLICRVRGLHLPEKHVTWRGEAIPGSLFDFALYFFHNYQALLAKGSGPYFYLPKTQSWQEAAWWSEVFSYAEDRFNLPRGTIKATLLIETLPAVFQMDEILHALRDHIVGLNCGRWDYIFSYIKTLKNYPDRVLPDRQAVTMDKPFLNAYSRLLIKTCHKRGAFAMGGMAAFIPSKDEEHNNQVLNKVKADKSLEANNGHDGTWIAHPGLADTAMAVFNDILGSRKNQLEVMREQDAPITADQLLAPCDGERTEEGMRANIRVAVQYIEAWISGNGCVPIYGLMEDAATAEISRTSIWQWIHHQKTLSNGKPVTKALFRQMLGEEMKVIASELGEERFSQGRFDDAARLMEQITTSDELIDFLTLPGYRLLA
# UniProt P07013: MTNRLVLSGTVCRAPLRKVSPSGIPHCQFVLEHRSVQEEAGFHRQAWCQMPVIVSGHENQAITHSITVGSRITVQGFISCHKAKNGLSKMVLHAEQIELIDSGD
# UniProt P0A6B4, whole entry: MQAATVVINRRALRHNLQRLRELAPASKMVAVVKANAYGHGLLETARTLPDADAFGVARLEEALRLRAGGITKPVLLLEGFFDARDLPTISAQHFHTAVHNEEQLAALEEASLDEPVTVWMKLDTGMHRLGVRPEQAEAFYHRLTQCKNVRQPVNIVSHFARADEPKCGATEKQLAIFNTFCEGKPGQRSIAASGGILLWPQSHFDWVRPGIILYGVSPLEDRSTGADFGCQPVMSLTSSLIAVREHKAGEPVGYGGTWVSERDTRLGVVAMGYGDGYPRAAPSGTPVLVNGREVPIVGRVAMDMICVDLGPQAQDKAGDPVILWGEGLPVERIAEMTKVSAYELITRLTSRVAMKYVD
# UniProt P08245: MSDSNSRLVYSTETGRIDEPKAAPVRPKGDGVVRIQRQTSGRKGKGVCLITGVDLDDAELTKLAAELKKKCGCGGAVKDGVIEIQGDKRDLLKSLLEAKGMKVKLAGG
# UniProt P06715: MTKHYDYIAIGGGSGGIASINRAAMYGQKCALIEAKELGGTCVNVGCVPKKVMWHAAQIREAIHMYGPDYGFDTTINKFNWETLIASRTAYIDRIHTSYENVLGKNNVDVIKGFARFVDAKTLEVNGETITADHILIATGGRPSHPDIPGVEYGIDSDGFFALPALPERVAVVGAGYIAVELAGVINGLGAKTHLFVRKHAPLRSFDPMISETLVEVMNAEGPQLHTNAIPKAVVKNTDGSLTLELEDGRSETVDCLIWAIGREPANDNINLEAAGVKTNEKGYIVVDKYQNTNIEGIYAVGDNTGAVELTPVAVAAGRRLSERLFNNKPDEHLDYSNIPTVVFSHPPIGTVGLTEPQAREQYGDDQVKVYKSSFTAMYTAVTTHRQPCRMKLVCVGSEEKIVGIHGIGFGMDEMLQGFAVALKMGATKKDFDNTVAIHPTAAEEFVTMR
# The list shows a part of the results. Most values lie at the level of the controls, where differences are scatter.
# Compound: CC1(C)S[C@@H]2[C@H](NC(=O)[C@H](N)c3ccccc3)C(=O)N2[C@H]1C(=O)O [ampicillin]
# Assay: log2 fold change of tryptic peptide abundance, ligand vs vehicle (limited proteolysis) (log2 ratio); higher = more trypsin-susceptible (destabilized)
# Conditions: ligand concentration: 10 uM; sample: E. coli crude lysate
row,Target,log2 fold change
1,"UniProt P06136 (peptide sequence: IHLVEYVPIAR, peptide start residue: 121)",-0.273
2,"UniProt P04968 (peptide sequence: VGLFAEGVAVKR, peptide start residue: 235)",-0.496
3,"UniProt P06966 (peptide sequence: ISHVSVSQWER, peptide start residue: 32)",0.0701
4,"UniProt P02924 (peptide sequence: TTGSMDALK, peptide start residue: 175)",-0.2
5,"UniProt P04993 (peptide sequence: EGPFGVAGLNER, peptide start residue: 446)",-0.263
6,"UniProt P08401 (peptide sequence: FTDNILTQNAR, peptide start residue: 293)",-0.103
7,"UniProt P00350 (peptide sequence: EKTEEVIAENPGKK, peptide start residue: 37)",0.256
8,"UniProt P00893 (peptide sequence: AFWLAASGRPGPVVVDLPK, peptide start residue: 145)",0.156
9,"UniProt P08839 (peptide sequence: FIEEKTIC, peptide start residue: 568)",-1.08
10,"UniProt P09546 (peptide sequence: IYAPVGTHETLLAYLVRR, peptide start residue: 539)",0.323
11,"UniProt P07026 (peptide sequence: ALGFLSFSR, peptide start residue: 129)",-0.0423
12,"UniProt P04816 (peptide sequence: TAGLDSSQGPTAAK, peptide start residue: 140)",-0.0696
13,"UniProt P00909 (peptide sequence: NHDIADVVDKAK, peptide start residue: 314)",0.355
14,"UniProt A5A607 (peptide sequence: AYTSIKSDEE, peptide start residue: 55)",-0.184
15,"UniProt P07464 (peptide sequence: LFTDMCEGLPEKR, peptide start residue: 14)",-0.325
16,"UniProt P08400 (peptide sequence: VDVPMMLR, peptide start residue: 278)",-0.216
17,"UniProt P07648 (peptide sequence: VKAHLTCLHTR, peptide start residue: 776)",0.95
18,"UniProt P06610 (peptide sequence: IEVNGEGRHPLYQK, peptide start residue: 97)",0.0683
19,"UniProt P08997 (peptide sequence: GSGPYFYLPK, peptide start residue: 206)",-0.321
20,"UniProt P07013 (peptide sequence: VSPSGIPHCQFVLEHR, peptide start residue: 19)",0.4
21,"UniProt P0A6B4 (peptide sequence: LGVRPEQAEAFYHR, peptide start residue: 130)",-0.321
22,"UniProt P08245 (peptide sequence: LVYSTETGRIDEPK, peptide start residue: 8)",-0.336
23,"UniProt P06715 (peptide sequence: LVCVGSEEK, peptide start residue: 393)",0.72
24,"UniProt P07862 (peptide sequence: IAVLLGGTSAER, peptide start residue: 5)",0.0665

# Some of the entries above in another layout:
row	Target	log2 fold change
17	UniProt P07648 (peptide sequence: VKAHLTCLHTR, peptide start residue: 776)	0.95
18	UniProt P06610 (peptide sequence: IEVNGEGRHPLYQK, peptide start residue: 97)	0.0683
